# According to PubChem BioAssay AID504842 (National Center for Advancing Translational Sciences (NCATS), 2011):
# Hit rate of the full screen: of about 330,000 compounds, about 100 (0.03%) were called active. Inconclusive results, whose numbers are uncertain, are shown with a selection of clear calls. Calls come from the whole dose curve; as a rule, active = well fitted inhibition curve with a large enough effect; inconclusive = small, poorly fitted or top-dose-only effect; inactive = flat fitted curve, though single readings scatter. Where the call is inconclusive, the potency comes from a doubtful curve fit.
# Tested on: Chaperonin Mm-Cpn (Methanococcus maripaludis)
# Experiment: Inhibitors of TCP-1 ring complex (TRiC) of Methanococcus maripaludis (MmCpn): qHTS; note: nearly all actives have a fitted effect of over 80% in size;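 for potency: enzyme at 25 nM with ATP substrate at 10 µM during the reaction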
# Conditions: purified Mm-Cpn ATPase, ADP Transcreener TR-FRET; series mostly up to 76.9 µM; activity, negative = inhibition: at the top concentration
# Method in brief: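 ATP (10 uM final) was added to archaeal chaperonin (25 nM final) after 10 min exposure to test compound at 37°C; after 30 min further incubation, ADP was detected by competitive TR-FRET.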
# % is set by controls: 0 for no effect and ±100 for the full control effect; potency is the fitted concentration of half-maximal effect.
SMILES,"activity, negative = inhibition",Potency
Cc1cc(C)n(-c2nc(N(c3ccccc3)c3ccccc3)nc(-n3nc(C)cc3C)n2)n1,inactive: -2.17%,
COc1ccc(-c2csc3nc(C)nc(N4CCN(c5ccc(C(C)=O)cc5)CC4)c23)cc1OC,,"inconclusive: 56.2 µM [inhibitor, single point]"
CCC1CCC2(CC1)NC(=O)N(CC(=O)N1CCc3ccccc31)C2=O (stereo not given),inactive: 1.39%,
Oc1cccc(NC(=S)Nc2cccnc2)c1,,"inconclusive: 89.1 µM [inhibitor, single point]"
CCOc1cccc(C2C(C(=O)c3ccc(C)o3)=C(O)C(=O)N2Cc2ccccc2)c1 (stereo not given),,"inconclusive: 20 µM [inhibitor, partial curve, poor fit]"
CCc1ccc(Nc2n[n+](-c3ccccc3)c(-c3cc(OC)c(OC)cc3Br)s2)cc1,,"inconclusive: 79.4 µM [inhibitor, single point]"
Cc1ccc(C2CC(c3cccs3)=NN2C(=O)CSc2nc(=O)n3ccc(C)cc3n2)cc1 (stereo not given),,"inconclusive: 112 µM [inhibitor, single point]"
Cc1c(C(=O)N2CCC(C)CC2)sc2ncnc(N(C)c3ccccc3)c12,,"inconclusive: 631 µM [inhibitor, partial curve, poor fit]"
CS(=O)(=O)N1CCC(Oc2ccccc2C(=O)N2CCNC(=O)C2)CC1,,"inconclusive: 31.6 µM [inhibitor, single point]"
CCn1c(=S)[nH]c2ccccc21,inactive: -1.18%,
Cc1cc(C(=O)OCC(=O)Nc2ccccc2Br)c(C)o1,inactive: 1.1%,
COc1ccccc1C(=O)NCCSCc1c(F)cccc1Cl,,"inconclusive: 20 µM [inhibitor, single point]"
COc1ccc(/C=N/NC(=O)c2ccc3c(c2)OCO3)cc1,,"inconclusive: 22.4 µM [inhibitor, single point]"
COc1ccc(OC)c(NC(=O)CSc2nc3scc(C)c3c(=O)[nH]2)c1,,"inconclusive: 70.8 µM [inhibitor, single point]"
COc1ccc(CN2CCN(Cc3ccc(C(F)(F)F)cc3)CC2)c(OC)c1,inactive: -0.981%,
Cc1cccc(OC(=O)NCCOC(=O)N(O)c2ccc(Cl)cc2)c1,,"inconclusive: 8.91 µM [inhibitor, single point]"
Cc1nnc(SCC(=O)n2c3c(c4ccccc42)CCCC3)s1,,"inconclusive: 11.2 µM [inhibitor, single point]"
CS(=O)(=O)N(CCc1ccccc1)CC(=O)NCc1cccnc1,inactive: 1.79%,
Cc1cc(C)c2cc(CN(CC3CCCO3)C(=S)NCc3ccco3)c(=O)[nH]c2c1 (stereo not given),,"inconclusive: 355 µM [inhibitor, partial curve, poor fit]"
Cc1noc(C)c1-c1ccc2ncnc(NCC3CCCCN3C)c2c1 (stereo not given),,"inconclusive: 22.4 µM [inhibitor, single point]"
O=C(Nc1ccsc1C(=O)O)c1cccc(Oc2ccccc2)c1,inactive: 0.544%,
O=c1nc2ccccc2c2n1CC(CN1CCN(c3ccc(F)cc3)CC1)N2 (stereo not given),,"inconclusive: 15.8 µM [inhibitor, single point]"
Cc1ccc(/C=N/n2c(C)nnc2C)cc1,,"inconclusive: 20 µM [inhibitor, single point]"

SMILES,"activity, negative = inhibition",Potency
Cc1cc2ccccc2n1CCNC(=O)COc1ccc2ccccc2c1,,"inconclusive: 112 µM [inhibitor, single point]"
COC(=O)c1c(-c2ccc(OC)cc2)sc2ccc(N3CCOCC3)cc12,,active: 50.1 µM
CCCOC(=O)COC(=O)c1ccccc1NC(=O)c1ccccc1,,"inconclusive: 20 µM [inhibitor, single point]"
O=C1CCc2cc(S(=O)(=O)Nc3cccc(F)c3)cc3c2N1CC3,inactive: -4.06%,
O=[N+]([O-])c1ccc(CSc2nc3ccccc3[nH]2)cc1,inactive: -2.66%,
O=C(c1cccc(S(=O)(=O)NCc2ccccc2)c1)N1CCN(c2ccc(F)cc2)CC1,,"inconclusive: 100 µM [inhibitor, single point]"
O=C(OCCc1cc2ccccc2c(=O)o1)c1ccc2c(c1)OCO2,,"inconclusive: 14.1 µM [inhibitor, single point]"
CCC(Oc1ccccc1)C(=O)Nc1ccccc1OC (stereo not given),,"inconclusive: 20 µM [inhibitor, single point]"
COC(=O)CNC(=O)CSc1nnc2cc(C)c3ccccc3n12,,"inconclusive: 22.4 µM [inhibitor, single point]"
N=C(N)SCc1ccc(Cl)cc1Cl,,"inconclusive: 89.1 µM [inhibitor, single point]"
COc1ccccc1-c1sc2cc3c(cc2c1-c1ccc(OCCN2CCOCC2)cc1)OCO3,,"inconclusive: 50.1 µM [inhibitor, partial curve, poor fit]"
O=C(Nc1ccc(F)c(F)c1)C1CCCN1S(=O)(=O)c1ccc(F)cc1 (stereo not given),inactive: -6.21%,
CCCCNCc1cc(OCC)c(OCC(N)=O)cc1Br,,"inconclusive: 56.2 µM [inhibitor, single point]"
Cn1ccc(C(=O)NC(=S)N2CCSCC2)n1,inactive: -0.684%,
O=C(Cn1nc(CNc2ccc(Br)cc2)[n+]2c1CCCCC2)c1ccc([N+](=O)[O-])cc1,inactive: 0.877%,
Cc1ccc2oc(C(=O)Nc3nnc(C)s3)c(C)c2c1,,"inconclusive: 56.2 µM [inhibitor, single point]"
CCOC(=O)CSc1nc(C)cc2c1C(=O)OC2,,"inconclusive: 22.4 µM [inhibitor, single point]"
N#Cc1ccc(-c2csc(NC(=O)C3CC3)n2)cc1,,"inconclusive: 63.1 µM [inhibitor, single point]"
O=S(=O)(Nc1ccncc1)c1cc(Cl)c(Cl)cc1Cl,,"inconclusive: 100 µM [inhibitor, single point]"
NC(=O)N/N=C/c1ccc(-c2ccc(S(=O)(=O)Nc3ncccn3)cc2)o1,inactive: 0.731%,
COc1cc(C#Cc2c(-c3cncn3C)n(C)c3ccc(-c4ccc(OC)c(OC)c4)cc23)cc(OC)c1,,"inconclusive: 112 µM [inhibitor, partial curve]"
CC(C)(C)c1nnc(NC(=O)c2cccnc2)s1,,"inconclusive: 14.1 µM [inhibitor, single point]"

# Quoted at random: 3 entries already listed.
SMILES,"activity, negative = inhibition",Potency
Cn1ccc(C(=O)NC(=S)N2CCSCC2)n1,inactive: -0.684%,
Cc1ccc2oc(C(=O)Nc3nnc(C)s3)c(C)c2c1,,"inconclusive: 56.2 µM [inhibitor, single point]"
O=C(c1cccc(S(=O)(=O)NCc2ccccc2)c1)N1CCN(c2ccc(F)cc2)CC1,,"inconclusive: 100 µM [inhibitor, single point]"
